Values from PubChem BioAssay AID504764 (Drosophila RNAi Screening Center, 2011)
Test: 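Genes whose knock-down alters Notch-dependent transcription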 (primary screen). System: Drosophila Kc167 cells. Reagent: long dsRNA against Drosophila genes. Timing: about 5 days (4 days dsRNA, then 24 h after transfection). Treatment: transfection of constitutively active membrane-tethered Notch lacking the extracellular domain, read 24 h later. Measurement: 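Firefly luciferase from an E(spl)m3 reporter with active Notch, plus control-promoter and uninduced reporter wells for normalisation; unnormalised counts, duplicate wells a and b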. Scale: induced reporter light, run 1, well a and induced reporter light, run 1, well b: higher = more light from the Notch target reporter with active Notch; control promoter light, run 1, well a and control promoter light, run 1, well b: higher = more light from the viral control promoter (cell number, transfection, viability); uninduced reporter light, run 1, well a: higher = more light from the Notch target reporter without active Notch. Hit rule: 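Hit if the duplicate-averaged log2 ratio of induced to control-promoter light gives a plate-wise z beyond ±2, or induced to uninduced beyond ±1.8; weak-control or discordant-duplicate wells dropped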. Calls: active = modifier hit (raised or lowered Notch signal); inactive = not a hit.
The deposit covers about 22,000 reagents; below is an unselected part of those with a known target gene and a result. In the full data, 403 (1.9%) were called active. 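Unnormalised raw counts per well; ratio z-scores behind the hit calls and whether each hit raises or lowers signal are not deposited.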 The record does not give: the amount of reagent.

CG10650 (GeneID 35162) [DRSC02085] — induced reporter light, run 1, well a = 1.87e5; induced reporter light, run 1, well b = 2.19e5; control promoter light, run 1, well a = 1.83e5; control promoter light, run 1, well b = 1.92e5; uninduced reporter light, run 1, well a = 18015; call = inactive
olf413 (GeneID 40453) [DRSC11543] — induced reporter light, run 1, well a = 2.87e5; induced reporter light, run 1, well b = 4.00e5; control promoter light, run 1, well a = 3.58e5; control promoter light, run 1, well b = 3.74e5; uninduced reporter light, run 1, well a = 23080; call = inactive
olf413 (GeneID 40453) [DRSC11679] — induced reporter light, run 1, well a = 33565; induced reporter light, run 1, well b = 31170; control promoter light, run 1, well a = 23275; control promoter light, run 1, well b = 26860; uninduced reporter light, run 1, well a = 3920; call = inactive
olf413 (GeneID 40453) [DRSC11721] — induced reporter light, run 1, well a = 1.47e5; induced reporter light, run 1, well b = 1.22e5; control promoter light, run 1, well a = 1.20e5; control promoter light, run 1, well b = 91480; uninduced reporter light, run 1, well a = 12290; call = inactive
olf413 (GeneID 40453) [DRSC11833] — induced reporter light, run 1, well a = 1.43e5; induced reporter light, run 1, well b = 93050; control promoter light, run 1, well a = 1.03e5; control promoter light, run 1, well b = 85020; uninduced reporter light, run 1, well a = 11100; call = inactive
CG13955 (GeneID 35968) [DRSC06443] — induced reporter light, run 1, well a = 2.08e5; induced reporter light, run 1, well b = 1.92e5; control promoter light, run 1, well a = 1.82e5; control promoter light, run 1, well b = 2.22e5; uninduced reporter light, run 1, well a = 19680; call = inactive
CG5225 (GeneID 42053) [DRSC15742] — induced reporter light, run 1, well a = 1.73e5; induced reporter light, run 1, well b = 1.97e5; control promoter light, run 1, well a = 2.08e5; control promoter light, run 1, well b = 2.41e5; uninduced reporter light, run 1, well a = 16810; call = inactive
Naglu (GeneID 46386) [DRSC02267] — induced reporter light, run 1, well a = 2.09e5; induced reporter light, run 1, well b = 1.95e5; control promoter light, run 1, well a = 2.11e5; control promoter light, run 1, well b = 2.76e5; uninduced reporter light, run 1, well a = 15392; call = inactive
PAN2 (GeneID 35893) [DRSC07115] — induced reporter light, run 1, well a = 1.34e5; induced reporter light, run 1, well b = 1.36e5; control promoter light, run 1, well a = 1.48e5; control promoter light, run 1, well b = 1.56e5; uninduced reporter light, run 1, well a = 12605; call = inactive
CG10336 (GeneID 35122) [DRSC02037] — induced reporter light, run 1, well a = 1.79e5; induced reporter light, run 1, well b = 1.83e5; control promoter light, run 1, well a = 2.07e5; control promoter light, run 1, well b = 1.97e5; uninduced reporter light, run 1, well a = 15200; call = inactive
Mst84B (GeneID 40840) [DRSC12579] — induced reporter light, run 1, well a = 1.18e5; induced reporter light, run 1, well b = 1.31e5; control promoter light, run 1, well a = 1.12e5; control promoter light, run 1, well b = 79545; uninduced reporter light, run 1, well a = 11120; call = inactive
kek1 (GeneID 34688) [DRSC03551] — induced reporter light, run 1, well a = 1.55e5; induced reporter light, run 1, well b = 1.64e5; control promoter light, run 1, well a = 1.73e5; control promoter light, run 1, well b = 1.72e5; uninduced reporter light, run 1, well a = 13150; call = inactive
P32 (GeneID 37006) [DRSC06988] — induced reporter light, run 1, well a = 91055; induced reporter light, run 1, well b = 74505; control promoter light, run 1, well a = 1.62e5; control promoter light, run 1, well b = 2.05e5; uninduced reporter light, run 1, well a = 7350; call = inactive
CG32669 (GeneID 326229) [DRSC18864] — induced reporter light, run 1, well a = 81410; induced reporter light, run 1, well b = 70555; control promoter light, run 1, well a = 78485; control promoter light, run 1, well b = 61685; uninduced reporter light, run 1, well a = 5670; call = inactive
Nepl3 (GeneID 326172) [DRSC02681] — induced reporter light, run 1, well a = 1.60e5; induced reporter light, run 1, well b = 1.77e5; control promoter light, run 1, well a = 1.72e5; control promoter light, run 1, well b = 1.80e5; uninduced reporter light, run 1, well a = 18830; call = inactive
tud (GeneID 37417) [DRSC04719] — induced reporter light, run 1, well a = 50470; induced reporter light, run 1, well b = 45280; control promoter light, run 1, well a = 53455; control promoter light, run 1, well b = 62390; uninduced reporter light, run 1, well a = 2635; call = inactive
Adi1 (GeneID 326189) [DRSC10945] — induced reporter light, run 1, well a = 2.06e5; induced reporter light, run 1, well b = 1.59e5; control promoter light, run 1, well a = 2.52e5; control promoter light, run 1, well b = 2.47e5; uninduced reporter light, run 1, well a = 12150; call = inactive
Adi1 (GeneID 326189) [DRSC21485] — call = inactive

Sorted by “induced reporter light, run 1, well b” (high to low): some entries from above
kek1 (GeneID 34688) [DRSC03551] — induced reporter light, run 1, well a = 1.55e5; induced reporter light, run 1, well b = 1.64e5; control promoter light, run 1, well a = 1.73e5; control promoter light, run 1, well b = 1.72e5; uninduced reporter light, run 1, well a = 13150; call = inactive
P32 (GeneID 37006) [DRSC06988] — induced reporter light, run 1, well a = 91055; induced reporter light, run 1, well b = 74505; control promoter light, run 1, well a = 1.62e5; control promoter light, run 1, well b = 2.05e5; uninduced reporter light, run 1, well a = 7350; call = inactive
